Assay [1] addresses T1, mitofusin 2 (MFN2) (mouse (endogenous in mixed germ cells of C57BL/6 testes)) (UniProt Q80U63).
T1 sequence: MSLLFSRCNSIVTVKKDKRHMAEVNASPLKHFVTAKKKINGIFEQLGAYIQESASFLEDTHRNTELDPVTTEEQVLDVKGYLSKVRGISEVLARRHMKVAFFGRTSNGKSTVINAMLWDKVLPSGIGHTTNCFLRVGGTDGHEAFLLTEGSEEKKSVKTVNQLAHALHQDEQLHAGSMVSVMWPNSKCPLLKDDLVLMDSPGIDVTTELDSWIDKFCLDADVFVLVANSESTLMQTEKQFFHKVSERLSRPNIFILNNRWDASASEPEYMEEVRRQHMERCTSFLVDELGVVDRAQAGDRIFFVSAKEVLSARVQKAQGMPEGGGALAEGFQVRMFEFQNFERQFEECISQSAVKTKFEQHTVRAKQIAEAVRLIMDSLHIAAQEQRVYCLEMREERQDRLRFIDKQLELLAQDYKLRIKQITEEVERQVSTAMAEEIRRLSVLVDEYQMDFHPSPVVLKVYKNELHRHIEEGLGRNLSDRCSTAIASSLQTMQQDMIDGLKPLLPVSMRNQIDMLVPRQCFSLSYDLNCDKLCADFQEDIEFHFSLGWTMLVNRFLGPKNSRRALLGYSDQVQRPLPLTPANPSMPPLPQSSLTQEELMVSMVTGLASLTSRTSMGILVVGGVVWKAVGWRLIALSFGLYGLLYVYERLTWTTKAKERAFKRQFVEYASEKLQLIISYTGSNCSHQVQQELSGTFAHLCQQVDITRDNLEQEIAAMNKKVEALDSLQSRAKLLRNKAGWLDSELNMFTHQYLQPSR
Nature of the assay: co-IP; Direct Magnetic IP/Co-IP Kit (Pierce); 5 ug of MNS1 purified antibody or MFN2 antibody coupled to N-hydroxysuccinimide-activated magnetic beads; 2 mg of mixed germ cell protein (IP Lysis/Wash Buffer lysate), rotation for 2 h; eluate analysed by SDS-PAGE and immunoblot with anti-MNS1 and anti-MFN2.

Assay [2] addresses T2, meiosis-specific nuclear structural 1 (MNS1) (mouse (endogenous in mixed germ cells of C57BL/6 testes)) (UniProt Q61884).
T2 sequence: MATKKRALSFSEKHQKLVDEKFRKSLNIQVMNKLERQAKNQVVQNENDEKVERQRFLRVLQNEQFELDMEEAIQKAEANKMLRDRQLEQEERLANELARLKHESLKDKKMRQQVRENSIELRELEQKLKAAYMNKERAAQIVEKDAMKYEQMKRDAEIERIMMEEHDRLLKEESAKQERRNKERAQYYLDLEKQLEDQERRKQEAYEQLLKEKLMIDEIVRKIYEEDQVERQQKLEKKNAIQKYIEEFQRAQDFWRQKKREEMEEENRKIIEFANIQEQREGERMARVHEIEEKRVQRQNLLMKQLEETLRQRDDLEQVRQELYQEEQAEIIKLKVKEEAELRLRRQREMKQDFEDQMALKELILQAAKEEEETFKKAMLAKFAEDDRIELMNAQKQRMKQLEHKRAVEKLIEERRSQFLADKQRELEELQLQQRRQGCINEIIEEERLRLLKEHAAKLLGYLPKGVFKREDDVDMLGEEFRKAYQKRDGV
The description is as above.

No constants are given. Whether binding was seen depends on the method and setting. In cells and extracts the contact can be indirect. Some binding calls cover weakened binding; strength is not graded here. Where a sequence is shown, tags or fusion partners need not be part of it.

B1: meiosis-specific nuclear structural 1 (MNS1) (protein, UniProt Q61884 1-491)
chain: T2 sequence
In the case of B1, in assay [1], the binding entry is “binds”.

B2: mitofusin 2 (MFN2) (protein, UniProt Q80U63 1-757)
chain: T1 sequence
Consider B2, for which, in assay [2], the binding entry is recorded as “binds”.

The values above are taken from PMC4038059.
